Structures can show the parent of a compound that is named as a salt. The list shows a part of the results. The calls rarely recur for the same compound in another form.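 In K562 cells expressing nanoluciferase-fused kinases, luminescence was recorded at 4 h intervals between 2 and 18 h, normalized as percent of control with DMSO at 100% and a positive control at 0%. A significant (2 sigma) signal drop marks a time point as decreased. The authors' rule for a hit is not shown and takes in more than the number of time points.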
Target: CDK2 (UniProt P24941)
Experiment: number of time points (of 5) at which kinase-Nluc abundance scored as decreased, DMSO-normalised (count); higher = more persistent destabilization
Settings: K562; 2-18 h

| SMILES | number of time points |
| --- | --- |
| N#Cc1ccc2[nH]c(O)c(-c3ccc(CN4CCOCC4)cn3)c2c1 (10 µM) | 0 |
| CCN(CC)CCCCNc1ncc2cc(-c3cc(OC)cc(OC)c3)c(NC(=O)NC(C)(C)C)nc2n1 (10 µM) | 0 |
| Oc1ccc(-c2nc(-c3ccc(F)cc3)c(-c3ccncc3)[nH]2)cc1 (2.5 µM) | 0 |
| O=C1NCCc2[nH]c(-c3ccnc(-c4cnc5ccccc5c4)c3)cc21 (10 µM) | 0 |
| Cc1cc(N2CCOCC2)cc2[nH]c(-c3c(NC[C@@H](O)c4cccc(Cl)c4)cc[nH]c3=O)nc12 (10 µM) | 0 |
| COc1cc(OC)cc(-c2cc3cnc(N)nc3nc2NC(=O)NC(C)(C)C)c1 (10 µM) | 0 |
| Cc1ccc(NC(=O)Nc2nnc(Sc3ncnc4cc(OCCCN5CCOCC5)ccc34)s2)cc1 (10 µM) | 0 |
| N#C/C(=C\c1ccc(O)c(O)c1)C(=O)NCCCc1ccccc1 (10 µM) | 0 |
| Cc1cccc([C@@H](CO)NC(=O)[C@@H](C)N2Cc3ccc(-c4nc(NC5CCOCC5)ncc4Cl)cc3C2=O)c1 [ERK1/2 inhibitor 1] (10 µM) | 0 |
| CCOc1ccn(-c2ccc(F)cc2)c(=O)c1C(=O)Nc1ccc(Oc2ccnc(N)c2Cl)c(F)c1 (10 µM) | 0 |
| O=c1cc(N2CCOCC2)oc2c(-c3ccccc3)cccc12 (10 µM) | 0 |
| O=c1oc2c(O)c(O)cc3c(=O)oc4c(O)c(O)cc1c4c23 [Ellagic acid] (10 µM) | 0 |
| C=CC(=O)Nc1ccc2ncnc(Nc3cccc(Br)c3)c2c1 (10 µM) | 0 |
| Cc1c(Cn2c(C)nc3c(C(=O)O)cc(N4CCOCC4)cc32)cccc1C(F)(F)F (10 µM) | 0 |
| Cc1c[nH]c2nccc(Oc3c(F)cc(Nc4cc(Cl)nc(N)n4)cc3F)c12 (10 µM) | 0 |
| CC(C)CC(=O)Nc1n[nH]c2c1CN(C(=O)C1CCN(C)CC1)C2(C)C (2.5 µM) | 0 |
| CCN(CCO)CCCOc1ccc2c(Nc3cc(CC(=O)Nc4cccc(F)c4)[nH]n3)ncnc2c1 [Barasertib-HQPA] (10 µM) | 0 |
| N#C/C(=C\c1ccc(O)c(O)c1)C(=O)NCc1ccccc1 (10 µM) | 0 |
| COc1nccc(-c2c(-c3ccc(F)cc3)ncn2C2CCC(O)CC2)n1 (centres undefined) (10 µM) | 0 |
| O=c1c(-c2ccc(O)cc2)coc2cc(O)cc(O)c12 [Genistein] (10 µM) | 0 |

Laid out differently: results already given
SMILES	number of time points
Cc1c(Cn2c(C)nc3c(C(=O)O)cc(N4CCOCC4)cc32)cccc1C(F)(F)F (10 µM)	0
Cc1c[nH]c2nccc(Oc3c(F)cc(Nc4cc(Cl)nc(N)n4)cc3F)c12 (10 µM)	0
CC(C)CC(=O)Nc1n[nH]c2c1CN(C(=O)C1CCN(C)CC1)C2(C)C (2.5 µM)	0

Next entries follow:

| SMILES | number of time points |
| --- | --- |
| CCOc1cc2ncc(C#N)c(Nc3ccc(OCc4ccccn4)c(Cl)c3)c2cc1NC(=O)/C=C/CN(C)C [Neratinib] (10 µM) | 0 |
| CN1CCC(Nc2ncc3ncnc(Nc4ccc(F)c(Cl)c4)c3n2)CC1 [Falnidamol] (10 µM) | 0 |
| O=c1c(O)c(-c2ccc(O)c(O)c2)oc2cc(O)cc(O)c12 [Quercetin (dihydrate)] (10 µM) | 0 |
| COc1ccc(C=C(C#N)c2cccnc2)cc1OC (10 µM) | 0 |
| Nc1ncnc2c1c(-c1ccc(Oc3ccccc3)cc1)cn2C1CCCC1 (2.5 µM) | 0 |
| COc1cc2nc(C)nc(N[C@H](C)c3cc(N)cc(C(F)(F)F)c3)c2cc1O[C@H]1CCOC1 (10 µM) | 0 |
| N#CC(=Cc1ccc(O)c(O)c1)C(=O)NCc1ccccc1 (mixture of isomers) (10 µM) | 0 |
| O=C1Cc2c([nH]c3ccc(Br)cc23)-c2ncccc2N1 [1-Azakenpaullone] (10 µM) | 0 |
| COc1cc2c(Nc3ccc(Br)cc3F)ncnc2cc1OCCn1ccnn1 (10 µM) | 0 |
| CNc1nc(-c2ccc3c(N)n[nH]c3c2)cc(N2C[C@@H](C(=O)NC3CCCCC3)CC[C@H]2C)n1 (10 µM) | 0 |
| Cc1cc(F)c(C(=O)Nc2cccc(-c3nncn3C(C)C)n2)cc1-n1cnc(C2CC2)c1 [Selonsertib] (10 µM) | 0 |
| COc1cc(C)c(Sc2cnc(NC(=O)c3ccc(CNC(C)C(C)(C)C)cc3)s2)cc1C(=O)N1CCN(C(C)=O)CC1 (centres undefined) (2.5 µM) | 0 |
| CCN(CC)CCCCNc1ncc2cc(-c3c(Cl)cccc3Cl)c(NC(=O)NC(C)(C)C)nc2n1 (2.5 µM) | 0 |
| COc1cc(C=C(C#N)C(N)=O)cc(CSc2nc3ccccc3s2)c1O (10 µM) | 0 |
| C[C@]1(O)C[C@@H](c2nc(-c3ccc4ccc(-c5ccccc5)nc4c3)c3c(N)nccn32)C1 [Linsitinib] (2.5 µM) | 0 |
| CCN1CCN(c2ccc(Nc3cc(N(C)C(=O)Nc4c(Cl)c(OC)cc(OC)c4Cl)ncn3)cc2)CC1 [Infigratinib] (10 µM) | 0 |
| COc1c(CC=C(C)C)c(O)cc2oc(=O)c(-c3ccc(O)cc3O)cc12 [Glycycoumarin] (10 µM) | 0 |
| Cc1cc(C(=O)Nc2cccc(C(=O)Nc3cccc(C(F)(F)F)c3)c2)on1 (10 µM) | 0 |
| Cn1c(=O)c(Oc2ccc(F)cc2F)cc2cnc(NC3CCOCC3)nc21 [R1487 (Hydrochloride)] (10 µM) | 0 |

Source: the supplement of paper PMC12823440, “Inhibitors supercharge kinase turnover through native proteolytic circuits” (Nature, 2025)
